Experimental data reported in PubChem BioAssay AID1508600 (Functional Genomics Laboratory (NCATS/FGL), 2020).
The campaign covered roughly 53,000 sequences. About 3,700 (7%) were called active.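 Rule for the calls: active = gene knockdowns whose robust z-score for IL-1 alpha signal is at least 2 or at most -2, so actives lie on both sides; inactive = the rest.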 Some of the results follow.

assay: Components of the Cytosolic LPS Sensing Pathway: Gene Identification via Genome-wide siRNA Screen; details: RAW264.7 macrophages, IL-1a HTRF, actives lie on both sides, screened at 100 nM (by protocol), cells primed 5 h with Pam3CSK4 first;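 note: robust z of the log signal after scaling to non-targeting control siRNA wells of the plate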
Procedure, shortened: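 RAW264.7; siRNA 100 nM final, RNAiMAX, 48h 37 degrees C; Pam3CSK4 5 h; LipidA + TransIT-TKO 24 h; IL-1a HTRF; CellTiter-Glo viability; robust z vs negative-control median.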

Row | Sequence | z-score
1 | GUCUGUGACCAGUUCCAUUTT against Fgf2os | inactive: 0.354
2 | GGCUCACUUUAUGUCGUGUTT against Atg5 | inactive: -1.24
3 | GGACUUAUUUCUCAAGUGUTT against Cd5 | inactive: 0.08
4 | GGCUCAGCUCCAGCAUAAUTT against Fam166b | inactive: -0.599
5 | GUCCCUCAAAAUGACGGACTT against Tlx3 | inactive: -0.417
6 | GCACAACUUGUGGUAGAAGTT against 4933409G03Rik | inactive: 1.26
7 | GGUCCUGGAGGAUACUUGGTT against Slc17a3 | inactive: -1.74
8 | GCAGUUGUAGGAACCGAAATT against Cxxc5 | inactive: 0.403
9 | GCUUCAUGAUGAAUCACCUTT against Otulinl | active: -2.1
10 | GGGAUCAUCUUGCUGUUCUTT against Cd79a | inactive: 0.0496
11 | GCUAUUAAGACCUUGGGAGTT against 4833432P19Rik | inactive: 0.32
12 | GGUGGACGGACAUUUUGUUTT against Rab9 | inactive: -1.27
13 | ACUGUAUGAAGAGGAAACATT against Krt87 | active: -2.14
14 | GGAAAAGAGACAGAAUUUGTT against Cd3eap | inactive: -0.69
15 | CGAGAUUGAUAGUACAUUCTT against Olfr1229 | inactive: -0.203
16 | GGCAGAUGCCAAUGAGGAATT against Cst3 | inactive: 1.48
17 | GGCCUGAGCUUUUUAACACTT against Slc52a3 | inactive: -0.442
18 | GAUUGGAACUUGUGGAUCUTT against Defb8 | inactive: 0.424
19 | GGACCAAGGCCUCACAAAATT against Nppb | inactive: -0.37
20 | GGCUGGAUGAACUUGCUCATT against Pld5 | inactive: -0.348
21 | GGAAUCCUGUUCCUUAUCATT against Slc43a3 | inactive: -1.61
22 | GCCGGCUACUGUAUUGAAUTT against Mamdc2 | inactive: -0.0306

Row | Sequence | z-score
23 | CGUAGUACCCAUGAAUUACTT against Adora2a | active: 4.87
24 | GGAGCUUUCCACUGAGUUCTT against 1700012A03Rik | inactive: 0.247
25 | GGUAGAACCUAGAAGAGAGTT against Gdpd5 | inactive: 1.24
26 | GCAGCUAAUGCAGAUAUUATT against Sucla2 | inactive: 1.09
27 | GGAUUUUCUGGAGUUGAUGTT against Mcoln2 | inactive: -1.08
28 | GGUCAUCAAUGCCACAGCUTT against Lpo | active: -2.24
29 | GCCAUUUACAUCUACAUUATT against Olfr1338 | inactive: 0.243
30 | GCGGCCUCAUCAUUUCAUCTT against Actr5 | inactive: 0.312
31 | GGAAGUGGAAAAACUGGUGTT against Ddx1 | inactive: -1.21
32 | GGACCUAUCUGAUGUCCAGTT against Il18rap | inactive: 0.473
33 | GGCCCUCAUGAUUGCUAUGTT against Nek8 | inactive: -0.722
34 | GCCAGAAGCAGCUUACCUGTT against Sec1 | inactive: -0.451
35 | GCGACAAGGCAAAGCUAGATT against Ppp1r21 | inactive: -1.26
36 | GCAGGACCACACGUAUUCATT against Foxred1 | inactive: -0.715
37 | GGAAAGAAGAAAGAACACATT against Tmpo | inactive: 0.562
38 | GGAAAUUAGUGCUGGGCGUTT against Erbb3 | inactive: 0.424
39 | GGAGAGGUUACUUUUGAGGTT against Slc25a13 | inactive: -0.606
40 | CGGAAAACAAUAUCGUGAATT against Pfdn6 | inactive: -1.65
41 | CGAAACCUGCUUAAAACAATT against Cgas | inactive: -0.607
42 | GACAAUACCAUAUCCUUUGTT against Olfr698 | inactive: 0.486
43 | GGAUUGGAUCCGAGACCAATT against Tspan17 | inactive: 0.233
44 | GCUGGAAUUCUCUUGGCUGTT against Trcg1 | inactive: 0.635

Records 20 through 21, quoted:
Row | Sequence | z-score
20 | GGCUGGAUGAACUUGCUCATT against Pld5 | inactive: -0.348
21 | GGAAUCCUGUUCCUUAUCATT against Slc43a3 | inactive: -1.61

The results go on.

Row | Sequence | z-score
45 | CGGUAGAACUAACGUGAUUTT against Irx2 | inactive: -1.38
46 | GGAGUUGAUCAAGACAGAGTT against S100a5 | inactive: -1.6
47 | GGUAUCAGUCGUCUGGGAGTT against Tas2r118 | inactive: 1.02
48 | GGCCAUGAGAAGAAGAAAGTT against Cep72 | inactive: -1.49
49 | GGGCGUACUCAACGUGAUUTT against Rbm47 | inactive: 1.57
50 | GCCUUGACGAUAGAUUAUUTT against Irf2 | inactive: 1.36
51 | GGACUUGGGUUUCAAUUCCTT against Ddx27 | inactive: -0.876
52 | CCCUGCAUUGCCUUAUAUCTT against Dram2 | inactive: -0.394
53 | GGGAAGGAUGGAAAAAGAUTT against Dlc1 | inactive: -0.378
54 | CCACACGUGUUGAACUUGATT against Dnm2 | inactive: -1.57
55 | CAAGUACAAGCAGUUGACCTT against BC061237 | inactive: -0.0958
56 | GCCUUGAAGGACCACUAGATT against Itgb1bp1 | inactive: 0.271
57 | GGGAAUCAAUGAAGGAUUUTT against Calcrl | inactive: -0.288
58 | GGCAGAUUGAUAAAAUUCATT against Stag1 | inactive: -0.223
59 | CCGGUAUUGUGAGCAAAUUTT against Zfp952 | inactive: -0.971
60 | GGACAGCUUUCAUGGAAAATT against Riox1 | inactive: 0.569
61 | CGUGCUACGAACAUGCUGCTT against Mmd | inactive: 0.0429
62 | GGCAUUGUUUCAGUAUUGUTT against Fndc9 | inactive: -0.369
63 | GGGUGCACUUUUGAUUCUATT against Ifitm7 | inactive: 1.2
64 | GGACCUAAAGAAUUCAUCGTT against Unc79 | inactive: 0.109
65 | GGCUGUUUGUGUUCUGUGCTT against Mst1 | inactive: -1.89
66 | GGGUACAUCUAACUUGAAUTT against Tnfrsf10b | inactive: -0.411

Row | Sequence | z-score
67 | GCCAAGUAUCAUCCAUUCCTT against Olfr23 | inactive: 0.534
68 | GGCAGAAAAUUGUUCUUAUTT against Cpt1a | inactive: -1.49
69 | GGACGAGGACCAGCUAGAATT against Txn2 | active: -2.07
70 | GGUGGAGUCAAAGGAACCCTT against Tprn | inactive: -0.266
71 | GGUCAGGUUGCCAAGAAGGTT against Sbds | inactive: 1.59
72 | GCCGGAGAUUUAAUAUUGATT against Chml | inactive: 0.586
73 | GGACUCAUGAAAUCAAGAATT against Washc2 | inactive: 0.396
74 | GGAUUUAUGUGGACAACGCTT against Dnah8 | inactive: 0.0478
75 | GGCUCAUUUGAUGGAUUUCTT against Elf5 | inactive: -0.679
76 | GGACAGCUUCCGAAACUAUTT against Miox | inactive: 0.349
77 | GGGAAAAUCUGAAGUGUAATT against Galnt13 | inactive: 0.0552
78 | GGUCCGUCUGGUAAAAAGATT against Ctnna2 | inactive: 1.19
79 | GCCAAGAAACAAUACUCAUTT against Olfr1352 | inactive: 0.694
80 | CGAGAGCUAAAAAGAGUAATT against Chd1 | inactive: 0.42
81 | GGGUUGCUGACUUUAGGAUTT against Lmx1a | inactive: 0.427
82 | CGCACUUGACCUAGCAAGUTT against A230083G16Rik | inactive: 0.777
83 | GGGAACUUCCUUGAGAAGATT against Mgat4d | inactive: 0.654
84 | GGAAGUUGAAAUGCUGUCGTT against Clcnka | active: -2.24
85 | GGGUUCUGGGAACUUUAUATT against Bdkrb1 | inactive: 1.71
86 | GGCUCUGUUGAAUGCAACGTT against Slc39a6 | active: -2.15
87 | GGGAUUAAAAGAUGACAUUTT against Dusp12 | inactive: 0.147
88 | GGUCCAAUUAACUUCACCGTT against Myl2 | inactive: -0.692

Part of the list above, with each value named.
GGUCCGUCUGGUAAAAAGATT against Ctnna2
  z-score: inactive: 1.19
GCCAAGAAACAAUACUCAUTT against Olfr1352
  z-score: inactive: 0.694
CGAGAGCUAAAAAGAGUAATT against Chd1
  z-score: inactive: 0.42
GGGUUGCUGACUUUAGGAUTT against Lmx1a
  z-score: inactive: 0.427

Going on with the list:

Row | Sequence | z-score
89 | GGACAAAAUUAGACCUUUGTT against Arf2 | inactive: 0.47
90 | GGCAUGACUAUAACCAUUUTT against 1110004F10Rik | inactive: 1.23
91 | GGAGAGAUUUCUUGGUAAATT against Tex261 | inactive: 0.108
92 | GUCUUCAGCAGUCUUCAGGTT against Sprr2f | inactive: -1.1
93 | GCAAGUGGUGUCGCUGUCATT against Olfr1349 | inactive: -1.18
94 | GAUCCUUGACUACAUCUAUTT against Asic4 | inactive: -0.422
95 | GGAAUUCUUGAAGAUUCCCTT against Ptpn7 | inactive: 0.884
96 | CCUUGAGUACUUAUUGCGUTT against Chac1 | inactive: 0.934
97 | CUGCUAUGACGACAACUACTT against Klk1b3 | inactive: 0.919
98 | CCCUACGUGACAACCAGCATT against Tspyl2 | inactive: -0.165
99 | CCGUACAGAUUGAGAAUACTT against Lmbrd1 | inactive: -0.79
100 | CCGUCAAAAGGGAAUUUCATT against Abca17 | inactive: -0.689
101 | GGCCAGGCUUUUGACUUUATT against Acy3 | inactive: -0.609
102 | GGAGAGUAAAACCAAUACATT against Fam76a | inactive: -0.0433
103 | GCUGUGUAGCAUUUUAACATT against Ank2 | inactive: -0.0376
104 | CCCUUGAACAUUCUACUCUTT against 1700012A03Rik | inactive: -0.955
105 | GGUAGACGACAUUGAUGAATT against Sgf29 | inactive: -0.744
106 | GGUUAAUUUUCAGAAUGGATT against Canx | inactive: -0.936
